Laboratory results taken from ChEMBL document CHEMBL3400046, “Discovery and evaluation of a novel monocyclic series of CXCR2 antagonists” (Bioorg Med Chem Lett, 2015).

Assay: physchem
Settings: octanol/water
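Further: distribution coefficient determined with the shake-flask method.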

SMILES: C[C@H](CO)Nc1cc(NS(=O)(=O)N2CCOCC2)nc(SCc2cccc(F)c2F)n1
- logD: 2.4
